{"source": "the supplement of paper PMC6414424", "note": "± gives the standard deviation of the averaged measurements. The list shows a part of the results.", "data": [{"test_system": "APPdp1-6 iPSC-derived neurons", "assay": "pThr231Tau/total Tau ratio Z-score vs DMSO vehicle wells; higher = more pThr231Tau relative to total Tau", "conditions": "5 µM; treatment time 5 days", "values": [{"compound": "C=C1CC[C@H](O)C/C1=C/C=C1\\CCC[C@]2(C)[C@@H]([C@H](C)CCCC(C)C)CC[C@@H]12", "pThr231Tau/total Tau ratio Z-score": "0.984 ± 1.6"}, {"compound": "NNCCc1ccccc1", "note": "[Prestw-170]", "pThr231Tau/total Tau ratio Z-score": "-0.145 ± 1.9"}, {"compound": "CCCc1cc(C(N)=S)ccn1", "note": "[Prestw-1321]", "pThr231Tau/total Tau ratio Z-score": "-0.00624 ± 1"}, {"compound": "CC(=O)S[C@@H]1CC2=CC(=O)CC[C@]2(C)[C@H]2CC[C@@]3(C)[C@@H](CC[C@@]34CCC(=O)O4)[C@H]12", "note": "[Prestw-128]", "pThr231Tau/total Tau ratio Z-score": "0.517 ± 1.1"}, {"compound": "CC(Cc1cccc(C(F)(F)F)c1)NCCOC(=O)c1ccccc1", "note": "(configuration not stated) [Prestw-367]", "pThr231Tau/total Tau ratio Z-score": "0.00761 ± 0.1"}, {"compound": "C=CC(N)CCC(=O)O", "note": "(configuration not stated) [Prestw-501]", "pThr231Tau/total Tau ratio Z-score": "0.696 ± 1.4"}, {"compound": "CCCCCCCCCCCCCCCC(=O)OC/C=C(C)/C=C/C=C(C)/C=C/C1=C(C)CCCC1(C)C", "pThr231Tau/total Tau ratio Z-score": "0.362 ± 0.5"}, {"compound": "NS(=O)(=O)c1cc(C2(O)NC(=O)c3ccccc32)ccc1Cl", "note": "(configuration not stated) [Prestw-351]", "pThr231Tau/total Tau ratio Z-score": "0.0927 ± 0.45"}, {"compound": "CCN[C@H]1CN(CCCOC)S(=O)(=O)c2sc(S(N)(=O)=O)cc21", "note": "[Prestw-365]", "pThr231Tau/total Tau ratio Z-score": "0.334 ± 0.18"}, {"compound": "CC(=O)OCC(=O)[C@@]1(O)CC[C@H]2[C@@H]3CCC4=CC(=O)CC[C@]4(C)[C@H]3[C@@H](O)C[C@@]21C", "note": "[Prestw-1486]", "pThr231Tau/total Tau ratio Z-score": "0.695 ± 0.35"}, {"compound": "Cc1ncc(C[n+]2csc(CCO)c2C)c(N)n1", "note": "[THIAMINE, vitamin B1, enzyme cofactor]", "pThr231Tau/total Tau ratio Z-score": "0.255 ± 0.76"}, {"compound": "Cc1ncc(C[n+]2csc(CCO)c2C)c(N)n1", "note": "[Prestw-631]", "pThr231Tau/total Tau ratio Z-score": "-0.0806 ± 1.3"}, {"compound": "CC(C)c1c(C(=O)Nc2ccccc2)c(-c2ccccc2)c(-c2ccc(F)cc2)n1CC[C@@H](O)C[C@@H](O)CC(=O)O", "note": "[ATORVASTATIN    Therap cat: antilipidemic]", "pThr231Tau/total Tau ratio Z-score": "-2.3 ± 1.1"}, {"compound": "CC(C)c1c(C(=O)Nc2ccccc2)c(-c2ccccc2)c(-c2ccc(F)cc2)n1CC[C@@H](O)C[C@@H](O)CC(=O)O", "note": "[Prestw-1232]", "pThr231Tau/total Tau ratio Z-score": "-3.78 ± 0.49"}, {"compound": "CCCCN(CCCC)CCCOC(=O)c1ccc(N)cc1", "note": "[Prestw-831]", "pThr231Tau/total Tau ratio Z-score": "1.04 ± 0.32"}, {"compound": "COC(=O)Nc1nc2cc(C(=O)c3cccs3)ccc2[nH]1", "note": "[Prestw-100]", "pThr231Tau/total Tau ratio Z-score": "-3.95 ± 0.3"}, {"compound": "Cc1ccc(C(=O)c2ccc(CC(=O)O)n2C)cc1", "note": "[Prestw-856]", "pThr231Tau/total Tau ratio Z-score": "-0.311 ± 0.97"}, {"compound": "CC[N+](C)(CC)CCOC(=O)C1c2ccccc2Oc2ccccc21", "note": "[Prestw-1066]", "pThr231Tau/total Tau ratio Z-score": "-0.531 ± 1.3"}, {"compound": "FC(F)(F)C(Cl)Br", "note": "(configuration not stated) [HALOTHANE, anesthetic]", "pThr231Tau/total Tau ratio Z-score": "0.294 ± 1.4"}, {"compound": "O=C(O)CN1C(=O)c2cccc3cccc(c23)C1=O", "note": "[ALRESTATIN    Therap cat: aldose reductase inhibitor]", "pThr231Tau/total Tau ratio Z-score": "2.64 ± 0.95"}, {"compound": "CC(=O)OCC(=O)[C@@]1(O)CC[C@H]2[C@@H]3CCC4=CC(=O)C=C[C@]4(C)[C@@]3(Cl)[C@@H](Cl)C[C@@]21C", "pThr231Tau/total Tau ratio Z-score": "1.36 ± 1.3"}, {"compound": "O=C(O)CCCCCCCC(=O)O", "note": "[Azelaic acid]", "pThr231Tau/total Tau ratio Z-score": "2.43 ± 4"}]}]}
